Some of the results follow.

Sequences of proteins named here, by UniProt entry; tags and fusion partners are left off.
UniProt Q0JBA9, entry or part of it: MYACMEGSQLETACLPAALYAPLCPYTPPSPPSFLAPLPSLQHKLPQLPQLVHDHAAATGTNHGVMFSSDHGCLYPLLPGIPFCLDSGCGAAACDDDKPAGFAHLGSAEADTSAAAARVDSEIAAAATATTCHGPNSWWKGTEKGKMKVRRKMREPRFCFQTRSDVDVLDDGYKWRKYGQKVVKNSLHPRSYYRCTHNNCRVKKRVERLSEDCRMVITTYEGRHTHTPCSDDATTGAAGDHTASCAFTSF

In this assay the target is OsWRKY34 (Oryza sativa, UniProt Q0JBA9 1-250). As to the kind of experiment: protein-binding microarray (RPBM); PBS, 2% BSA, 51.3 ng/ul salmon testes DNA, 50 uM zinc acetate, 200 nM TF, 25 C, 1 h; high values mean tight binding. As to conditions: protein: recombinant; tags: N-terminal polyhistidine and DsRed monomer fusion (pET32a); label: CyDye5-dUTP incorporated in the synthesized complementary strand; 3' TTTTT single-stranded linker to array surface; dsDNA, one strand shown. In short, it runs like this: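 Binding signal is reported as fluorescence intensity per feature (arbitrary units) from an Axon 4000B scanner. Incubation used 200 nM of each Ni–NTA-purified, N-terminally polyhistidine- and DsRed-fused transcription factor from E. coli BL21-CodonPlus on a double-stranded custom Agilent array for 1 h at 25 °C, with 50 µM zinc acetate in the buffer, followed by washing.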
For the sequence “ACCACCTCCTACCGTCCCACTCCCACGCCGCGACACACGCCGGAGTCACCTAGTGCAG”, the binding signal is 12200 fluorescence intensity (a.u.).
On to “GGCAGGAGGAGTTTGTGAGTTAGTTTGTTTCATTTTTCGCCGGAGTCACCTAGTGCAG”, for which the binding signal was 9520 fluorescence intensity (a.u.).
For “CGGCTAGGGTTTGTTTTTCTTTTCTTTTTTTCCTTTTCTTCGGAGTCACCTAGTGCAG”, the binding signal is 14300 fluorescence intensity (a.u.).
The same measure for “GATGGGAAGAGGACAGCCATGAGTAGATTGCAGATTCAAGCGGAGTCACCTAGTGCAG”: 9160 fluorescence intensity (a.u.); for “CGCAGTGCTCGTCTCCTCTCGGTCTCTCTCTTCGTCTCTCCGGAGTCACCTAGTGCAG”: 10500 fluorescence intensity (a.u.); for “GATTCTAAACATCCACTCACACCTCATTTTTTTCATTAGCCGGAGTCACCTAGTGCAG”: 9350 fluorescence intensity (a.u.).
The same measure for “GCCTTCACATGTTTTTTTTTAATTCTCTTCTTTCTGACTGCGGAGTCACCTAGTGCAG”: 8340 fluorescence intensity (a.u.).
In the case of “GTAGTACCTTTCACTTGCCTCTTCTTTACACAGTTCGTTCCGGAGTCACCTAGTGCAG”, the binding signal was 11200 fluorescence intensity (a.u.).
In the case of “CCGTTTCGTGCAACCGCACCACACGCTAAGTGCGCGGCCGCGGAGTCACCTAGTGCAG”, the binding signal is 9090 fluorescence intensity (a.u.).
The same measure for “AAATTATAACGAGGGGTGAGGGGCTAAGAACCTATTTTCGCGGAGTCACCTAGTGCAG”: 9700 fluorescence intensity (a.u.); for “GATACCATTCCGCTTTCACCTGCCGTTGTTGATCAGCCATCGGAGTCACCTAGTGCAG”: 10600 fluorescence intensity (a.u.); for “GAGCTACATCTTTCCGTTGATTTGAGAAGTTCAGTTTGAGCGGAGTCACCTAGTGCAG”: 8310 fluorescence intensity (a.u.).
Turning to “CATCGTTTTAAGGAGTGACCTCGGGTTTTTGCTCATTCATCGGAGTCACCTAGTGCAG”, the binding signal was 8970 fluorescence intensity (a.u.).
With “AGTACTTTTATAATGGTAATTTGTTTTTTTTAAAAAATATCGGAGTCACCTAGTGCAG” the figure was 8700 fluorescence intensity (a.u.).
As for “GATCCTGTCCATGCAGCTCACTCAGGCTTGTTCTTGTTTACGGAGTCACCTAGTGCAG”, the binding signal was 9380 fluorescence intensity (a.u.).
In the case of “GTCCTTTTAAACACAAGCAACGGTTGTCATAGGTTCTGATCGGAGTCACCTAGTGCAG”, the binding signal was 8610 fluorescence intensity (a.u.).
With “GGGGACTTAATCGCACTGCACATGGAATGTTTTCTACTCGCGGAGTCACCTAGTGCAG” the figure was 8280 fluorescence intensity (a.u.); with “CATGAACGACTCTCATTTTCTCGTGTGTTTCACGCCTGGCCGGAGTCACCTAGTGCAG”, 8400 fluorescence intensity (a.u.); with “ACACGGGACCTTACCACTCTACTATCGAGTACATCTCTGACGGAGTCACCTAGTGCAG”, 9280 fluorescence intensity (a.u.).
With “CACCATTGACTTTTTAGCACATGTTTGACCGTTCGTCTTACGGAGTCACCTAGTGCAG” the figure was 14800 fluorescence intensity (a.u.); with “TTATTCTATTTTTTTCATTCATATGTTTAGATTTATTAATCGGAGTCACCTAGTGCAG”, 8280 fluorescence intensity (a.u.); with “TTTATTTAGTTGTTTCAGCTCACTCTTTTAACTAACCTTCCGGAGTCACCTAGTGCAG”, 9520 fluorescence intensity (a.u.).
With “CAAAATTGTGCTTGTTGTCTTACATGTAGCTTTAACCAAACGGAGTCACCTAGTGCAG” the figure was 8270 fluorescence intensity (a.u.).
For the sequence “GTGCCCTTATTGTTTCGCCTATGCGTTTAAATTTTAAAACCGGAGTCACCTAGTGCAG”, the binding signal was 10800 fluorescence intensity (a.u.).
The same measure for “TAGCCGCCTCATCTCGCCCATTCGCTTCCCCGTCATAAAGCGGAGTCACCTAGTGCAG”: 8480 fluorescence intensity (a.u.); for “GCCCGTGCTCTACTTGCAATACATGATTACTTCTCACGTTCGGAGTCACCTAGTGCAG”: 14100 fluorescence intensity (a.u.).
The same measure for “GATCACCGCACTGTTGGGTTCGCGACTTCTCGTATTCTCTCGGAGTCACCTAGTGCAG”: 8980 fluorescence intensity (a.u.).
“TCAAGGGAGAGGAGAGGGAGGGTTCTGGTCCGGTCAGGACCGGAGTCACCTAGTGCAG”: the binding signal was 8580 fluorescence intensity (a.u.).
With “CAAAAATTATCATTTTCTCTGCACTATACCCTTATATACCCGGAGTCACCTAGTGCAG” the figure was 9950 fluorescence intensity (a.u.).
The same measure for “GAGTTTTCCGTGTGGAGGGTGTGGATTTTTTCGTGTGTTCCGGAGTCACCTAGTGCAG”: 15500 fluorescence intensity (a.u.).
The same measure for “GGTGTCTTGATTGATATGATTTAAATTATTCTTGGTCTTGCGGAGTCACCTAGTGCAG”: 9570 fluorescence intensity (a.u.); for “GGAGGATAGAGATGCATATATTTCTCGTCATTTTCTTTCTCGGAGTCACCTAGTGCAG”: 8060 fluorescence intensity (a.u.); for “TCCCTATTCGAATTATCACTGTTCACCGCATATTCGTTTTCGGAGTCACCTAGTGCAG”: 9040 fluorescence intensity (a.u.).
“TAACACATCTCTATATTTGATCTGCAGGTACCATCGTCTTCGGAGTCACCTAGTGCAG”: the binding signal was 9200 fluorescence intensity (a.u.).
For “GTTCTGTTGTCCATTTCCGGATTCTTTTGTCAAATTTAAACGGAGTCACCTAGTGCAG”, the binding signal was 10900 fluorescence intensity (a.u.).
As for “TTGGTACCACTTTCTCAATTTTTCATTTATTTCTCATTTCCGGAGTCACCTAGTGCAG”, the binding signal is 8540 fluorescence intensity (a.u.).
On to “CCGCATGTGACCACCGGTGTTGTTGTTGGTCACATCTCTACGGAGTCACCTAGTGCAG”, for which the binding signal is 8140 fluorescence intensity (a.u.).
With “AATGCTCATTTTCCACTACTGTCGATGTGATTTGGTTCTGCGGAGTCACCTAGTGCAG” the figure was 8700 fluorescence intensity (a.u.); with “CCGCGCCACCACCACCAGCCTCGTCAATTCTGAGGGCGCCCGGAGTCACCTAGTGCAG”, 9200 fluorescence intensity (a.u.).
The same measure for “GCTATTATTTTTTTGGCTTTTTTTTTCTTGTGACTTTGTTCGGAGTCACCTAGTGCAG”: 11300 fluorescence intensity (a.u.); for “CTGTTAACCACACCTTTTCTATTCATGACACTGGTACTCCCGGAGTCACCTAGTGCAG”: 8050 fluorescence intensity (a.u.).
With “ACTTTATTATCTACAGTACTTTAAGCACAACTTTTCGTTTCGGAGTCACCTAGTGCAG” the figure was 8200 fluorescence intensity (a.u.).

Source of the values: article PMC7819943, “Rice protein-binding microarrays: a tool to detect cis-acting elements near promoter regions in rice”.
